In the test the test system is PANC-1 pancreatic carcinoma cell line. Put plainly: PANC-1 cell line toxicity (Cell titer Glo viability). The settings on record: Homo sapiens, PANC-1, 72 h, read-out: IC50 (cell viability). As to the method: The half maximal inhibition concentration (IC50) for each compound was determined by harvesting cells during the logarithmic growth period and then counting cell number using hemocytometer. The cell concentrations were adjusted to 5×10^4 cells/mL with respective culture medium. 30 μL of cell suspensions were added to three 384-well plates with the final cell density of 1.5×10^3 cells/well. Then, using a Biomek FX, test articles were serially diluted (10 mM top, 3× dilution intervals) along with a reference inhibitor (1 mM top, 3× dilution intervals) in acoustic grade Labcyte plate. Then, using an acoustic dispenser (Labcyte550), compounds were added as serially diluted to plate with cells: 90 nL of serially diluted compounds per well. 90 nL DMSO is added to control wells. Test plates were incubated for 72 h in the humidified incubator at 37° C. with 5% CO2. 25 μL of reconstituted Cell titer Glo reagent was added to each well. Each test plate was then incubated for 20 min at room temperature. Luminescence was then recorded using Synergy Neo2Multi-mode Reader.
In order to calculate intersect IC50, a dose-response curve was fitted using nonlinear regression model with a sigmoidal dose response.
The formula for calculating surviving rate is shown below, and the intersect IC50 was calculated according to the dose-response curve generated by the software: […]
(In general: In ATP-based viability assays light output follows the ATP content of the culture.)

A word on the IC50: it is the concentration that inhibits the measured activity by half. As for `CN[C@@H]1C[C@H]2O[C@@](C)([C@@H]1OC)n1c3ccccc3c3c4c(c5c6ccccc6n2c5c31)C(=O)NC4` [Staurosporine, staurosporine, reference compound], the 50% inhibitory concentration (IC50) is roughly 0.08 µM.

These data come from US20250073184A1, “CANNABIGEROQUINONE COMPOUNDS, COMPOSITIONS INCLUDING SUCH COMPOUNDS, AND USES OF SUCH COMPOUNDS AND COMPOSITIONS” (Juva Life, Inc., priority 2021, published 2025).
